From patent US20250235501A1, “Methods and Compositions for Treating or Preventing Neurological Injury or Neurological Disorders” (University of Connecticut, priority 2024, published 2025)
No constants are given. Whether binding was seen depends on the method and setting. In cells and extracts the contact can be indirect. Binding can be weak; no strength is given. Tags and fused reporters may be left off the sequences shown.

Experiments:
[1] = molecular target: PKCγ over-expressed in HEK293T cells (plasmid Addgene 112266); test: co-IP with anti-TRPM2, probed with anti-PKCγ, HEK293
[2] = molecular target: PKCγ over-expressed in HEK293T cells (plasmid Addgene 112266); test: co-IP (figure legend of FIGS. 4A-4R)

- binding [1]: binds
- binding [2]: binds
B1: Flag-TRPM2-NT, N-terminal fragment of TRPM2 (1-727) (protein, not shown: small tags and cut ends)
chain: MEPSALRKAGSEQEEGFEGLPRRVTDLGMVSNLRRSNSSLFKSWRLQCPFGNNDKQESLSSWIPENIKKKECVYFVESSKLSDAGKVVCQCGYTHEQHLEEATKPHTFQGTQWDPKKHVQEMPTDAFGDIVFTGLSQKVKKYVRVSQDTPSSVIYHLMTQHWGLDVPNLLISVTGGAKNFNMKPRLKSIFRRGLVKVAQTTGAWIITGGSHTGVMKQVGEAVRDFSLSSSYKEGELITIGVATWGTVHRREGLIHPTGSFPAEYILDEDGQGNLTCLDSNHSHFILVDDGTHGQYGVEIPLRTRLEKFISEQTKERGGVAIKIPIVCVVLEGGPGTLHTIDNATTNGTPCVVVEGSGRVADVIAQVANLPVSDITISLIQQKLSVFFQEMFETFTESRIVEWTKKIQDIVRRRQLLTVFREGKDGQQDVDVAILQALLKASRSQDHFGHENWDHQLKLAVAWNRVDIARSEIFMDEWQWKPSDLHPTMTAALISNKPEFVKLFLENGVQLKEFVTWDTLLYLYENLDPSCLFHSKLQKVLVEDPERPACAPAAPRLQMHHVAQVLRELLGDFTQPLYPRPRHNDRLRLLLPVPHVKLNVQGVSLRSLYKRSSGHVTFTMDPIRDLLIWAIVQNRRELAGIIWAQSQDCIAAALACSKILKELSKEEEDTDSSEEMLALAEEYEHRAIGVFTECYRKDEERAQKLLTRVSEAWGKTTCLQLALEAKDM
